Experimental data reported in paper PMC5486089.

Target: T1, GFP-Cep70 (centrosomal protein 70) (UniProt Q8NHQ1)
T1 sequence: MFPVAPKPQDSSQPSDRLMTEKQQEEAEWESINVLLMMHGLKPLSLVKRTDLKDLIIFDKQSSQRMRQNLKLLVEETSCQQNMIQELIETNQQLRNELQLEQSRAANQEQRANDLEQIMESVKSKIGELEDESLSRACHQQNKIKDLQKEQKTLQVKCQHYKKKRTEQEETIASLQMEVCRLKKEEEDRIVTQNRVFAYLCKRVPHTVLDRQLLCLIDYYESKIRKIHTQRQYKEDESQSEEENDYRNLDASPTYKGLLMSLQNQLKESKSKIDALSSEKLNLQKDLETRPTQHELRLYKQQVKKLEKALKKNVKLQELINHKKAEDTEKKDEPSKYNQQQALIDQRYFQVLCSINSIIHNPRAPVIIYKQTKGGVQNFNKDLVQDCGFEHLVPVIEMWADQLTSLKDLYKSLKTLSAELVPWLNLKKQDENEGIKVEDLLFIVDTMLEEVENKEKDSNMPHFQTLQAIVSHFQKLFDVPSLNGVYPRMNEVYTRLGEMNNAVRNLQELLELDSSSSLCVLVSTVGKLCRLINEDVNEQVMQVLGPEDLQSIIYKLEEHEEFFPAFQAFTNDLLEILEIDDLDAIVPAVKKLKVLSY
Assay: co-IP; GFP-Cep70 or GFP transfected into 293T cells; lysates incubated with anti-GFP antibody-conjugated agarose beads at 4 °C overnight, washed with RIPA lysis buffer; immunoblot with anti-tubulin or anti-GFP antibodies

binding: binds
Substance: tubulin (human (endogenous in 293T))

Results are given in words; binding and its absence hold for the method and conditions named. In cells and extracts the contact can be indirect. Binding calls can cover weak binding; strength is not graded here. Where a sequence is shown, tags or fusion partners need not be part of it.
